Test results taken from paper PMC5539093, “Functional Characterization of Four Putative δ^1-Pyrroline-5-Carboxylate Reductases from Bacillus subtilis” (Frontiers in Microbiology, 2017).
Results are given in words; binding and its absence hold for the method and conditions named.

Biological target: ComER, putative δ1-pyrroline-5-carboxylate (P5C) reductase from Bacillus subtilis (Bacillus subtilis strain 168) (UniProt P39696)
Assay: small-angle X-ray scattering (SAXS) in line with SEC; each native protein at 5 mg mL^-1 loaded onto a Superdex 200 column in 20 mM HEPES pH 8.0, 150 mM NaCl, 2 mM TCEP, routed into the flow cell; oligomeric state from mass, Rg, Dmax and ab initio envelope; both purified

B1: ComER, putative δ1-pyrroline-5-carboxylate (P5C) reductase from Bacillus subtilis (enzyme, UniProt P39696 1-273)
chain: MKIGFIGTGNMGTILIESFIESKAADPSNMTITNRTIEKALHIKNRYNSINVTESLEKLVSENEMIFICVKPLDIYPLLARALPYLRKDHILISITSPVQTEQLEQYVPCQVARVIPSITNRALAGVSLVTFGTSCGESAKAKINELMQHISHPLQIESDITRVASDIVSCGPAFMSYLIQRFIDAAVSETSVSKQDAILMCKEMLVGMGKLLETELYTLPALQEKVCVKGGVTGEGIKALESGVQDMFHRVFQNTHMKYEEDISAVKKQFHV
With B1 the binding was “no binding (tested: 5 mg mL^-1 loaded onto the column)”.
